Data as given in the supplement of paper PMC3334620.
Whole data set: some 33,000 sequences, median “E-score (-0.5 to 0.5)” near -0.0059, cut for the highest 2% near 0.26. The list shows a part of the results.

target: T1, Cin5 (UniProt P40917); assay: PBM E-score (8-mer binding enrichment) (E-score (-0.5 to 0.5)); higher = stronger / more preferred TF binding; conditions: protein concentration: 100 nM; construct: GST-full length
T1 sequence: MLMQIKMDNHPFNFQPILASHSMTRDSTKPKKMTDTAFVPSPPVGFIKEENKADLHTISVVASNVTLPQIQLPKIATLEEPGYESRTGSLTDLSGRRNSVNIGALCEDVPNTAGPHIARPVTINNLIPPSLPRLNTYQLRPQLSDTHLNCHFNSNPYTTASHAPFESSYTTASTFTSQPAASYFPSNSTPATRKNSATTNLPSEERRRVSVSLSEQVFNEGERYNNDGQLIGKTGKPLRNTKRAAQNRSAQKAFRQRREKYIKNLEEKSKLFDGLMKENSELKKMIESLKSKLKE
Procedure: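 Universal 'all 10-mer' protein binding microarrays (Agilent AMADID 015681) probed with GST-tagged S. cerevisiae TFs (full-length or DBD) made by in vitro transcription/translation (PURExpress), about 100-200 nM. Bound TF was detected with fluorescent anti-GST. Each ungapped 8-mer (which stands for itself and its reverse complement) is scored by the PBM enrichment score (E-score), a modified Wilcoxon-Mann-Whitney statistic from -0.5 to +0.5, computed with the Universal PBM Analysis Suite. Scale: above 0.35 generally sequence-specific binding.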

Sequence	PBM E-score
AGCCCGCC	-0.0566
AGCAATCA	0.221
ACGCACCC	-0.267
CTACGTTC	-0.0564
CTCTGTAC	-0.119
ATCAGAAT	0.131
GTCTCCAA	-0.0956
CCGACGTA	-0.0159
CCTCCTAC	-0.248
GTACTAAA	0.0965
ACTAGTGC	0.0478
CACACCCA	0.117
ACACTAAC	0.141
ATTTTTGG	0.0157
CGATAGAC	-0.0837
ATCGCCCC	-0.168
CTTACTAC	0.202
GGAGGGAC	-0.189
CAGGACTG	-0.156
CCCCGGAC	-0.233
CACCCGGA	0.0998
CCACTCAG	-0.104
CTTACAGC	-0.0244
CAACGGAG	-0.043
AGTAAACA	0.21

Sequence	PBM E-score
CAAGAAGC	0.0478
AGGCCTCA	-0.167
GTCGTCTA	0.0507
TCCCTCGA	-0.0641
CGAACGCG	0.00852
GCAACTAA	0.229
CGTTTCGC	0.0756
AGGGGACT	-0.2
GTGCGCAA	-0.127
ACCTTTGG	-0.304
GAGTTAGC	0.097
ACTAACGA	0.0822
CGTCGTGA	-0.18
CCTTCATA	0.0109
GCCCCGCC	0.1
AGAGCTGC	-0.181
GATAATCC	0.17
AGTATAGC	0.113
AAGGTAGC	-0.0971
CCTGCACG	-0.111
ATGCTACA	-0.0162
CTATTGAC	0.132
CGTAAGAA	0.0745
ATAAGCCA	0.11
ACAGGTGG	-0.195

Random excerpt: 4 entries already listed, in no set order.
Sequence	PBM E-score
GCAACTAA	0.229
ACCTTTGG	-0.304
CCTGCACG	-0.111
CGTCGTGA	-0.18

(next part)

Sequence	PBM E-score
CGCCCACA	0.16
AGCGTTCG	0.0638
ATAGGGCG	-0.0574
TAAAGGAA	-0.0482
CGTAGACC	-0.252
AGTGCGTC	-0.12
CGCGTACA	-0.081
GACCATAA	-0.0597
ACAGTTAC	0.0239
AACCACGC	-0.0367
CTATGGTA	0.107
ACAATATC	0.214
CGGTCGGA	-0.213
GATTGTCC	-0.129
GCTCACGA	-0.0418
CCGCCGGA	-0.00456
AACCAAGC	-0.0367
ATGCTGTC	-0.00139
ATGCGTGA	0.0573
AGGAGCAG	-0.247
CATTACTC	0.0453
GTAATGAA	0.162
AAACCATT	0.045
CCGCATAG	0.0714
GCTTAAAC	-0.144

Sequence	PBM E-score
CTCGCCAA	0.0055
ATTTGGTG	0.0979
ATCACCGG	-0.118
ATTCCGTA	0.115
ACCATGTA	0.102
CCTGAGTC	-0.0597
GAGAACGC	-0.0459
ATGTGCCC	-0.0254
GTGAGGCA	-0.0433
CTAAGGAA	-0.0525
CCCCCTCC	-0.403
ACACATGG	0.0516
AAACTCGA	0.125
CTGCTCGA	-0.118
ACCATATG	0.0375
TAGCCCCA	0.187
AGGTCCAG	0.0191
CAGAAGAC	-0.0176
CGCGTGCC	0.0722
CTTTGCTA	0.0754
CGCCGTAA	0.122
GCGTTTAC	0.0151
AAGTCCCT	-0.204
TCCCCTCA	0.201
GGAGAAGA	-0.131

Sequence	PBM E-score
CGGCTGTA	-0.111
CTCCTGAA	-0.0295
AACCGAAG	0.0257
AGACGTAA	0.0955
AAGATACC	0.15
GCCCTGCA	-0.142
CCTGCGAG	-0.0365
GCTAGACA	-0.122
GGATAGAA	0.109
AGGTAACG	-0.039
AAGGGCGT	-0.204
CATTTTCG	0.0912
CACTCTCG	0.116
ACAGGCTA	-0.0671
TGATTAAA	0.0915
ACCGAGAT	0.132
ATTTTAAG	0.0394
CATTACCC	-0.0213
CGTGATAG	-0.14
CGGTTACA	0.118
CTAAACTA	0.0914
CATCGCCC	-0.21
CGCCCAAG	-0.181
TCGAATAA	0.0954
CCAGACAC	-0.172

Quoted from the listing:
For PBM E-score, CAAGAAGC reads 0.0478
For PBM E-score, CCAGACAC reads -0.172
For PBM E-score, GAGAACGC reads -0.0459
For PBM E-score, CTAAGGAA reads -0.0525

The listing continues.

Sequence	PBM E-score
CTCGGTCC	-0.179
CCCGTTTC	-0.0716
AGGTGCCC	-0.274
CAGGATAG	0.049
ATGAACAT	0.134
CAAACTAG	-0.0187
ATCTTGGC	0.0234
GAACAGTC	-0.136
AGAAAGAG	0.0149
AAGTAATC	0.339
CCATGCCA	0.0583
CAAGGTCA	-0.182
ATTCTCGC	-0.0981
AGTGAAAG	0.028
ATGTGTGA	-0.0496
ATCTTTCC	0.187
GATACGTA	0.0494
AACATATC	0.128
CGGGAGAC	-0.129
GCTCGGGA	-0.157
AGGAGCTG	-0.219
AAGGGCGA	-0.241
CACACTCC	-0.0415
ACAGGGCG	0.0253
TCCAGGGA	-0.201

Sequence	PBM E-score
ATCCCGTG	0.219
CCTGTCAA	-0.0966
ACTCAGGC	-0.0282
GTTATGTA	0.276
AGCACCCT	-0.286
ATCCATTG	0.144
GGCATGGA	0.0379
AGCGCCAG	-0.2
CTGAATGC	-0.173
CTAAGAGC	-0.0674
AACCTCGA	-0.0539
ATTTGAGA	0.104
GTGTTCTA	0.194
ACGGCGTA	-0.0363
AAGGAACC	0.0344
AAAAGTAT	0.138
AGAAGTGC	-0.255
AATCAACC	0.141
AGCAAGCT	-0.156
AAGACCCC	-0.0378
AAAATACC	0.0891
TAATGGAA	0.281
CGAATCAC	0.0292
ACTCACCA	0.0441
ACGCTGAG	-0.0314

Sequence	PBM E-score
CTTCTAAA	-0.202
TAGACTGA	-0.0193
GTTCGGCA	-0.0166
CGATCCAG	0.0305
ATCAGTTA	0.165
CTTTTCTA	-0.184
AGGTGGAT	-0.12
ACGATGAT	0.0141
GACTAAGA	-0.0692
AAGACGTA	-0.0276
AAGCGGAT	0.0776
ATGAGGTA	0.128
TCCGCACA	-0.0639
ATAAAAAA	0.0702
CGTGGCGA	-0.141
CACTCCTA	-0.232
GGGTACTA	0.0192
AACGTTAG	0.0292
CGGTTCAC	-0.206
CTAAATTC	0.0709
ATTCCACG	0.0808
TGACACCA	0.00088
GTGTCTGA	0.0227
CGGAAGCC	-0.138
GCAACATA	0.0111

Already shown: entries from further up.
Sequence	PBM E-score
CGTGATAG	-0.14
CGGTTACA	0.118

The list goes on.

Sequence	PBM E-score
AGTGGCGA	0.16
GCGAAGAA	0.0108
GTGTCCTA	-0.0463
AGTAGTGC	0.0767
ATGGCCGA	0.0473
GGCGGCAA	-0.184
GCCTAAAC	-0.179
CGGCCTGC	-0.254
TCGGGTAA	0.0904
AGCGCGTG	-0.118
GCGGAGAC	0.0831
GGGATGAC	0.0306
GAACATAA	0.198
CGTCATAG	-0.116
TCACCGCA	-0.0648
CCAGCTGG	-0.0237
AACCGCGA	0.232
AGGGCGAC	-0.145
CCACCTCC	-0.266
ACTTCCGA	0.103
GAATACGC	0.151
ACCGTCAA	-0.0143
CGTTCAGC	-0.0513
AGGCCCAC	-0.376
AAGCCGAC	-0.101

Sequence	PBM E-score
AACTTGGA	0.0817
CACTGTCA	0.0443
CTCGCCTA	0.0943
CGCGAGAA	-0.0242
CAGGAAAA	0.0838
CCCGCAAA	0.142
AAACAAAA	0.137
TACCTAGA	-0.0428
AACTAGGG	-0.0214
ACAAAAAA	0.207
CAGAAGGA	-0.262
GCGCGACC	-0.0799
GTCCATGA	-0.162
AACCTAAG	0.12
CAGTTAAA	-0.00337
AGCCCTCG	-0.168
TTCTTAAA	-0.064
AACAGATG	-0.0195
CCGTATGC	0.159
GCGATAAC	0.0145
CATGTGAG	-0.0813
GGAAATCC	-0.00618
GACGACGA	0.0654
AAAAACCA	0.0166
ACGGACTG	-0.211

Sequence	PBM E-score
CGCCTGCA	-0.179
CGAACTAA	0.122
CGACCATA	-0.0514
ATACGTCG	0.0973
AGCCCGCT	-0.272
TACAAATA	0.239
AAAGACAT	0.063
AAAGTTAC	0.05
AGGGGCAT	-0.00366
CGGACCAC	-0.0349
CATTTGTA	0.196
AGACTGAG	-0.206
GGTATTAA	0.064
CCTGATCA	-0.0926
CGTCATCC	0.231
AAAGGATC	-0.0193
CCGATTCG	0.213
ACGGTCAA	0.0388
CCTGGGAA	-0.0453
CATTACGA	0.127
AACGATAA	0.0174
ATAACCCG	-0.12
GCACAAAA	0.172
ACCCTCTC	-0.135
CACCATCG	-0.196

Sequence	PBM E-score
GACTGTAC	-0.121
GTCCCTAA	-0.0706
CTCGCAAA	-0.0438
AGGACGTC	-0.0926
AGCAGAGC	-0.204
ACAATGCC	0.0284
ATAAAGGG	-0.246
GCCTTGCA	-0.0942
AGCATCTC	-0.00955
CCTCTAAA	-0.0808
AGAGCGGA	-0.0173
AATCACCT	0.0958
AAGGGTCT	-0.175
CTTGGATA	-0.0489
ACCAGTAG	-0.15
ATTGGCGA	0.0406
GTTTAGGA	-0.26
AGTGTGAG	-0.112
CTGTACGA	0.0228
CAAATCCA	0.107
CGCCACCG	-0.068
AAGGACTT	-0.312
AGCCTCAT	-0.0203
ATCTCATC	0.16
AAACTCTC	0.0339

Sequence	PBM E-score
CGAACCCA	-0.132
CATGGTTA	0.113
ATGCCTGA	-0.0468
ATTAGCCC	-0.0857
CTCCCAAG	-0.187
GTCCTTCA	0.0161
CATCCGTC	0.12
CGACAATA	0.209
AGATTGCC	-0.0969
GTGATACA	0.0757
TCGCATAA	0.198
CCCCAGCG	-0.216
CACTCGGG	-0.117
TACCCCAA	0.208
AAACCCTG	-0.0435
AGGTGCTG	-0.0524
AAAATTAG	0.226
AACGAGAC	-0.0573
CATACAAA	0.187
AATACAGT	0.153
CTCACGTA	0.0249
ACATACAA	0.138
GACCTGCA	-0.146
AAGTTTAA	-0.216
CGAACGTC	-0.16

Sequence	PBM E-score
AAAGGGTT	-0.231
GGAAGCAA	-0.0854
GACACGGC	-0.0828
ATCATTTA	0.226
CATAAGGC	0.0908
ATTGCGCG	0.148
GAATGCCC	-0.0134
ATGTGGAG	-0.0409
CCAGATTC	-0.157
CACGCCCG	-0.133
TCGCAGCA	-0.0458
GAAACATC	-0.116
AAAGATAT	0.3
ACCTAATC	0.311
AGTAGAGG	-0.263
AGTTACGC	-0.0841
GCCACGAC	0.111
TAACTGTA	0.0391
CTGACCAG	-0.157
